# Measurements taken from the supplement of paper PMC8256030.
# Values joined by “and” are separate entries in the source; they are usually repeats but may differ in a detail not shown here. Equal entries are not always repeated. This is one part of the list. Single values are uncertain here, since repeats match poorly.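 HEK293T cells were given each compound shortly before transfection with a reporter in which red mCherry is followed by the SARS-CoV-2 frameshift element and then GFP in the −1 frame, so GFP appears only after frameshifting.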
# System: HEK293T
# Experiment: percent viability (nuclei count) relative to control; higher = more viable cells
# Conditions: 10 µM; 24 h
row,SMILES,percent viability
1,CC=CC1=C(C(=O)O)N2C(=O)[C@@H](NC(=O)[C@H](N)c3ccc(O)cc3)[C@H]2SC1 [Cefprozil],307%
2,Cc1cc(=O)n(-c2ccccc2)n1C,322%
3,CC(C)(C)C(O)/C=C/c1ccc2c(c1)OCO2 (stereo not given) [stiripentol],296%
4,N[C@@H](CC(=O)N1CCn2c(nnc2C(F)(F)F)C1)Cc1cc(F)c(F)cc1F,194%
5,COc1cc(NS(C)(=O)=O)ccc1Nc1c2ccccc2nc2ccccc12,162%
6,Cc1ccc(O)c2ncccc12 [tiliquinol],179%
7,C[C@H](CS)C(=O)N1CCC[C@H]1C(=O)O [captopril],130% and 289%
8,Cc1cc(C(C)(C)CC(C)(C)C)ccc1OCCOCC[N+](C)(C)Cc1ccccc1 [methylbenzethonium chloride],142%
9,OCc1cc(C(O)CNCCCCCCOCCCCc2ccccc2)ccc1O (stereo not given) [salmeterol],325%
10,Nc1nc(OCc2cc(Br)cs2)c2[nH]cnc2n1 [lomeguatrib],86.8%
11,C/C=C(/C(=C/C)c1ccc(O)cc1)c1ccc(O)cc1 [dienestrol],163%
12,O=C(O)c1ccccc1,398%
13,CS(=O)(=O)OCCCCOS(C)(=O)=O [busulfan],352%
14,CC(C)(Oc1ccc(Cl)cc1)C(=O)OCCOC(=O)c1cccnc1 [etofibrate],268%
15,CC(C)(C)c1ccc(CN2CCN(C(c3ccccc3)c3ccc(Cl)cc3)CC2)cc1 (stereo not given) [buclizine],188%
16,C[C@H]1O[C@@H](O[C@H]2[C@@H](O)C[C@H](O[C@H]3[C@@H](O)C[C@H](O[C@H]4CC[C@@]5(C)[C@H](CC[C@@H]6[C@@H]5CC[C@]5(C)[C@@H](C7=CC(=O)OC7)CC[C@]65O)C4)O[C@@H]3C)O[C@@H]2C)C[C@H](O)[C@@H]1O,2.86%
17,O=C(NCC1[C@H]2CN(C(=O)OCc3cc(C(F)(F)F)cc(C(F)(F)F)c3)C[C@@H]12)c1ccc2n[nH]nc2c1 (stereo not given in full),229%
18,Cc1oc(=O)oc1CN1CCN(c2cc3c(cc2F)c(=O)c(C(=O)O)c2n3C(C)S2)CC1 (stereo not given) [prulifloxacin],198%
19,CCN(CC)CCNC(=O)c1ccccc1O [saletamide],167%
20,NCCCC(O)(P(=O)(O)O)P(=O)(O)O [Alendronate],203%

row,SMILES,percent viability
1,CCC1=C(C)CN(C(=O)NCCc2ccc(S(=O)(=O)NC(=O)N[C@H]3CC[C@H](C)CC3)cc2)C1=O,132%
2,CCC[C@@]1(CCc2ccccc2)CC(O)=C([C@H](CC)c2cccc(NS(=O)(=O)c3ccc(C(F)(F)F)cn3)c2)C(=O)O1 [tipranavir],192%
3,O=C1C(O)=C(O)C(=O)C(O)=C1O [tetroquinone],396%
4,CO/N=C(\C(=O)N[C@@H]1C(=O)N2C(C(=O)O)=C(CSC(=O)c3ccco3)CS[C@H]12)c1csc(N)n1,156%
5,CCN(CC)C(=O)c1cccc(C)c1,147%
6,N=C(N)n1cccn1 [praxadine],87%
7,C[C@]12C=CC(=O)C=C1CC[C@H]1[C@@H]3CC[C@](O)(C(=O)CO)[C@@]3(C)C[C@H](Cl)[C@@]12Cl [dichlorisone],236%
8,CCCCCOC(=O)Nc1nc(=O)n([C@@H]2O[C@H](C)[C@@H](O)[C@H]2O)cc1F [capecitabine],279% and 244%
9,Cc1ccccc1N1C(=O)c2cc(S(N)(=O)=O)c(Cl)cc2NC1C (stereo not given) [metolazone],93.7%
10,CCCCC[C@H](O)CC[C@@H]1[C@H]2Cc3cccc(OCC(=O)O)c3C[C@H]2C[C@H]1O [treprostinil],144%
11,CN(C)CCC=C1c2ccccc2CCc2ccccc21 [amitriptyline],353% and 316%
12,CCCCOc1ccc(C(=O)CCN2CCCCC2)cc1 [dyclonine],108%
13,NCc1ccc(S(N)(=O)=O)cc1 [mafenide],153%
14,O=P(O)(O)C(Cl)(Cl)P(=O)(O)O [clodronic acid],93.1%
15,CN(CCOc1ccc(CC2SC(=O)NC2=O)cc1)c1ccccn1 (stereo not given),329%
16,C1COC(NC(C2CC2)C2CC2)=N1 [Rilmenidine phosphate],324%
17,Cc1ccc(S(=O)(=O)NC(=O)NN2CC3CCCC3C2)cc1 (stereo not given) [gliclazide],257% and 256%
18,O=C(Nc1ccc(O)cc1)c1ccccc1O [osalmid],241%
19,C[C@]12CC[C@@H]3c4ccc(O)cc4C[C@@H](CCCCCCCCC[S+]([O-])CCCC(F)(F)C(F)(F)F)[C@H]3[C@@H]1CC[C@@H]2O (stereo not given in full) [Faslodex],125%
20,CCN(CC)CCNc1ccc(CO)c2sc3ccccc3c(=O)c12 [hycanthone],236%

# For convenience, some entries already given:
row,SMILES,percent viability
1,CCC1=C(C)CN(C(=O)NCCc2ccc(S(=O)(=O)NC(=O)N[C@H]3CC[C@H](C)CC3)cc2)C1=O,132%
2,CCC[C@@]1(CCc2ccccc2)CC(O)=C([C@H](CC)c2cccc(NS(=O)(=O)c3ccc(C(F)(F)F)cn3)c2)C(=O)O1 [tipranavir],192%
3,O=C1C(O)=C(O)C(=O)C(O)=C1O [tetroquinone],396%
4,CO/N=C(\C(=O)N[C@@H]1C(=O)N2C(C(=O)O)=C(CSC(=O)c3ccco3)CS[C@H]12)c1csc(N)n1,156%
5,CCN(CC)C(=O)c1cccc(C)c1,147%
6,N=C(N)n1cccn1 [praxadine],87%
7,C[C@]12C=CC(=O)C=C1CC[C@H]1[C@@H]3CC[C@](O)(C(=O)CO)[C@@]3(C)C[C@H](Cl)[C@@]12Cl [dichlorisone],236%
8,CCCCCOC(=O)Nc1nc(=O)n([C@@H]2O[C@H](C)[C@@H](O)[C@H]2O)cc1F [capecitabine],279% and 244%
9,Cc1ccccc1N1C(=O)c2cc(S(N)(=O)=O)c(Cl)cc2NC1C (stereo not given) [metolazone],93.7%
10,CCCCC[C@H](O)CC[C@@H]1[C@H]2Cc3cccc(OCC(=O)O)c3C[C@H]2C[C@H]1O [treprostinil],144%
